These results are taken from PMC12040169 (PLOS Biology, 2025).

The other results are listed elsewhere or left out.

This assay has as its system T1, CTL2-GFP (C. trachomatis L2/434/Bu, GFP-expressing).
T1 construct: L2/434/Bu, GFP-expressing
On the set-up: species or system HeLa; Intracellular C. trachomatis growth in HeLa cells, bulk GFP fluorescence relative to DMSO. As to conditions: bulk GFP, single well; 28.5 h, 10 µM; inhibitor.
`O=c1sc(Nc2ccccc2)nc2ccsc12` [CBK287853]: the “% of control remaining” value was 77.2158%.

Consider `COc1cc(CNc2nc(-c3ccc(C(C)(C)C)cc3)cn3ccnc23)cc(OC)c1OC` [CBK066615], for which the “% of control remaining” value turned out to be 89.7637%.

Turning to `CCc1noc(C)c1C(=O)N1CCN(C2CCCC2O)CC1` (stereo not drawn) [CBK304869], the “% of control remaining” value is reported as 125.563%.

For `c1ccc(CCNc2cc(-c3cccc4ccccc34)ncn2)nc1` [CBK037762], the “% of control remaining” value is on record as 123.708%.

Turning to `CCNC(=S)N[C@@H]1CC[C@@]2(Cc3ccc(OC)c(OC)c3)CCN(C)[C@H]2C1` [CBK023811], the “% of control remaining” value amounted to 112.354%.

Take `CCC(=O)N[C@H](CC)Cn1ncc2ccccc2c1=O` [CBK284303]: the “% of control remaining” value came to 156.552%.

As for `Cc1cnccc1-c1cn(C)nc1-c1ccc(CNC(=O)c2cccc(N(C)C)c2)cc1` [CBK285633], the “% of control remaining” value is recorded as 121.702%.

`O=C(Cc1ccccc1)Nc1ncc(Cc2ccccc2)s1` [CBK287322]: the “% of control remaining” value is given as 129.945%.

Regarding `CSc1cccc(NC(=O)CN(C)S(=O)(=O)c2ccc3ccccc3c2)c1` [CBK266708], the “% of control remaining” value amounted to 119.197%.

As to `CN(C)S(=O)(=O)n1cc(/C=C/c2nc(N)nc(-c3ccccc3O)n2)c2ccccc21` [CBK268386], the “% of control remaining” value is given as 72.2575%.

With `O=C(CSc1n[nH]c(=O)[nH]c1=O)N/N=C/c1ccc(O)cc1` [CBK263488], the “% of control remaining” value amounted to 117.503%.

For `O=C(c1ccc([N+](=O)[O-])cc1)C12CN3CN(CN(C3)C1)C2` [CBK011238], the “% of control remaining” value stood at 100%.

As for `O=C(Nc1ccccc1)Nc1ccc2c(c1)S(=O)(=O)c1cc(NC(=O)Nc3ccccc3)ccc1-2` [CBK262320], the “% of control remaining” value was 64.8384%.

For `O=C(NC1Cc2ccccc2C1)c1cccc(-c2ccc(CC3CCCNC3=O)cc2)c1` (stereo not drawn) [CBK285579], the “% of control remaining” value is recorded as 123.464%.

For the compound `CC(CNC(=O)C1CCCC1)N1CCc2ccccc2C1` (stereo not drawn) [CBK304555], the “% of control remaining” value is listed as 72.1835%.

For the compound `Cc1[nH]c(=O)[nH]c(=S)c1C(=O)NCc1ccc(Cl)cc1` [CBK115489], the “% of control remaining” value is 95.9459%.

In the case of `CC(=O)N(C)c1nc(-c2cccc(N(C)C)c2)ccc1C(=O)NCc1cccnc1` [CBK076639], the “% of control remaining” value came out at 190.396%.

With `COCCn1ccnc1C1CCN(C(=O)C(O)c2cccc(Cl)c2)CC1` (stereo not drawn) [CBK306901], the “% of control remaining” value is on record as 157.829%.

`CC(=O)N1CCC(c2nc(Cc3cccs3)no2)C1` (stereo not drawn) [CBK282998]: the “% of control remaining” value is on record as 99.3842%.

Consider `Cc1cc(C(=O)Nc2ccc([C@@H](O)[C@H]3COCC(=O)N3Cc3ccccc3)cc2)n(C)n1` [CBK289669], for which the “% of control remaining” value came out at 133.327%.

Consider `O=C(CCN1C(=O)c2cccc3cccc(c23)C1=O)Oc1ccc2c(c1)OCO2` [CBK266237], for which the “% of control remaining” value is 115.696%.
